The campaign covered roughly 53,000 sequences. About 3,700 (7%) were called active.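 The calls were made as follows: active = gene knockdowns whose robust z-score for IL-1 alpha signal is at least 2 or at most -2, so actives lie on both sides; inactive = the rest.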 The list shows a part of the results.

This assay is described as follows: Components of the Cytosolic LPS Sensing Pathway: Gene Identification via Genome-wide siRNA Screen.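 Also: robust z of the log signal after scaling to non-targeting control siRNA wells of the plate.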 The note with it: RAW264.7 macrophages, IL-1a HTRF, actives lie on both sides, screened at 100 nM (by protocol), cells primed 5 h with Pam3CSK4 first. The gist of the method: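 Using IL-1a HTRF as read-out, the screen measured release from RAW264.7 cells after 48h siRNA knockdown (100 nM), 5 h Pam3CSK4 priming and 24 h cytosolic LipidA. Values were expressed relative to negative-control wells as robust z-scores.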
For GGUAUUGACAGAAUGAGUUTT against Zfp109, the z-score was inactive: -0.464.

Regarding GGAGUUAAUCAGUCAAAUGTT against Dclk2, the z-score is inactive: 0.754.

Consider CGUUUCUGUGGACAGAAUUTT against Pip4p1, for which the z-score is inactive: -0.836.

Turning to GGCGAAGUGGUUAAAAGUGTT against Ifnar1, the z-score is inactive: -0.141.

As to GGUUUUGUGGGAAGAGUCATT against Ccdc163, the z-score was active: -2.99.

Regarding GGAAGAGGAGGAGCUGAUGTT against Speer4f1, the z-score was inactive: -0.56.

In the case of GGUGGAGGUCUGGUUUAAGTT against Gsc, the z-score was inactive: -0.4.

As to GGUACUGCUAAGCAAAGUCTT against Zdhhc3, the z-score was inactive: 1.82.

With CGGAAAAAUUCGGAAAGAATT against Tulp4, the z-score is inactive: 1.62.

As for GGGCAUCGAUAUCAUGCUATT against Epb41l1, the z-score is inactive: -0.387.

Turning to GGACCUGUUUGAUUUGGUGTT against Nf2, the z-score was inactive: 0.8.

As for GGAGAGGAUGCAUGUAAAATT against Fbxl22, the z-score is inactive: -1.19.

Turning to GCUAUGUGGGAAGUUUCAUTT against Tmem263, the z-score is inactive: 0.924.

Regarding CCCAAAGUUACAACACUGUTT against Gm5142, the z-score was inactive: 0.216.

With GGAUGAGCUCAAGAAGUCCTT against Snrpa, the z-score was inactive: 0.698.

With GCCAUUUAUUGAAACUCGCTT against Becn1, the z-score was inactive: -0.905.

Regarding AAUGUAGUCAAAUCAAAGATT against Sprr2a1, the z-score was inactive: -0.326.

As to GCUGGAUCGUUACGUUUAUTT against Mios, the z-score is inactive: 0.507.

Regarding CCAAAACAAGAAUCAUAUGTT against Clca3b, the z-score was inactive: -1.35.

For the sequence GCAGAGACGUGAUUGAUCGTT against H2bc18, the z-score was inactive: -1.17.

Turning to GGUGCCUGAGGUUCUUUUUTT against Actrt1, the z-score was inactive: 0.751.

Regarding “GGUGUGACGGUGCCUAUAUTT against D10Wsu102e”, the z-score is inactive: -0.929.

Regarding CCUUGAUGACGAAAACAUATT against Plekha2, the z-score was inactive: -1.43.

As for GGAGCUGUGCAAGAGGAAATT against Wnt16, the z-score is inactive: 1.01.

Regarding GGGAGUCCUUUUCAAACCATT against Cldn15, the z-score was inactive: -0.461.

Consider GGGUUUGACAAAAUUGACCTT against Nudt6, for which the z-score was inactive: -0.983.

With CAGUAGGUAUGUUCACUGGTT against Olfr1000, the z-score was inactive: -1.79.

As to CCACCUAUCAGGAUUCAACTT against Sf3b6, the z-score is active: -3.37.

In the case of GGAUCUAAGGAAGUUUCUGTT against Gfpt2, the z-score was inactive: 0.594.

In the case of GGUGUCAACCAGUUGUUUUTT against Nr2c1, the z-score was inactive: -1.2.

For GGUUGAUGUGGAGAAGGUGTT against Gnaq, the z-score is inactive: 0.786.

Turning to GCGACGUAAAUUUUGCUUUTT against Tlr5, the z-score was inactive: 1.55.

In the case of GGCAGGAGAUGGUAACUGCTT against Phc2, the z-score was inactive: 1.08.

Regarding GCACCUUAUGGGUAGAAAATT against Mtmr2, the z-score was inactive: -0.0164.

Consider GCUGACAUUGAGAAUCGGGTT against Ptpn6, for which the z-score was inactive: -0.0671.

Consider GCAAGACCCGUCACAAUCUTT against Slc16a9, for which the z-score is inactive: 0.013.

CCUUCAGCAAUCUCAGAAATT against Olfr295: the z-score is inactive: 1.64.

In the case of GGCCUUAGAACAAGGAAUATT against Cdk7, the z-score is inactive: -0.769.

As to GGGUCAUCUGUAAUUUCCATT against Cst10, the z-score was inactive: -0.424.

Take CCCAGCAGGCCAUAUUAGUTT against Cks1b: the z-score was inactive: 0.377.

Regarding GGGAGUUGGUGGAAUGCUUTT against Ech1, the z-score was inactive: -0.221.

For the sequence GGAUAGACAUCAGAAACUATT against Ranbp17, the z-score is inactive: 1.18.

GGACAAUGAUUUUCUGAUUTT against Sv2b: the z-score is inactive: 0.962.

Take GGCCUUUGGGAAAACAUGGTT against Zcchc14: the z-score was active: -2.16.

Take GGAUGACCUUUCAUUCAAATT against Cep295: the z-score is inactive: 0.476.

As for GGUGUUUGACACUCAAGCATT against Vmn1r75, the z-score was inactive: 0.521.

In the case of GGUCGAAAGAUUCCUGAAGTT against Hs3st1, the z-score is inactive: -0.324.

On to GGAAAGAGAGUCUUAAAUGTT against Cyb5r4, for which the z-score is inactive: 0.863.

With GCAUGGAGGACUUUGUCACTT against Imp3, the z-score was inactive: -1.26.

GCCAUUACAAGAGCUGUUCTT against Myt1l: the z-score is inactive: 1.29.

As for GCUGGAGAAAGCGGAGAUATT against Hes7, the z-score was inactive: 0.747.

On to GGAUCUGAAGACAUGGAGATT against H2-M1, for which the z-score was inactive: 0.659.

GGAAGAAACGGAGACUCAATT against Dpf1: the z-score is inactive: 0.052.

As for CCACAAGAUUGUUUCAGAATT against Lingo4, the z-score is inactive: 0.216.

Take GGUGUCCUGGCUGUAUGCATT against Gfra4: the z-score was inactive: -1.09.

For GGCCAGUUCUCGUUUGGAATT against Dr1, the z-score was inactive: 0.884.

As to GGUGUGUAAUGUGCGUGAGTT against Ephb3, the z-score was inactive: 1.11.

With CCGAAAGAUCAGCACAUCCTT against Olfr24, the z-score was inactive: -0.184.

On to “GGGAUGUUUAGGUCACCUUTT against 4933434M16Rik”, for which the z-score was active: -2.35.

Regarding GGUUCAGAUGUCUGAUAAATT against Mrm3, the z-score was inactive: 1.43.

For the sequence GGAAUUUGGUGACGACAAGTT against Ing4, the z-score was inactive: -0.467.

For the sequence GCUUGCUAGAUUGGUGUUGTT against Arhgap17, the z-score is active: 3.32.

With GCUUAUGAUGUAUUUCGUGTT against Ttpa, the z-score was inactive: 0.134.

Consider “GGCAAGCAAGCAUAUUAUCTT against D830013H23Rik”, for which the z-score was inactive: 0.252.

For GGAUGAAAGCCAUUAAGUUTT against Tifa, the z-score was inactive: -0.251.

CCCUAAGGCAUUAUUAUUCTT against Nkd1: the z-score is inactive: 1.27.

Consider GGUGUGCCUAUGUUAUAGUTT against Slc13a5, for which the z-score was inactive: -0.982.

With GCCUCUAAGCUACACUACATT against Olfr1289, the z-score was inactive: -0.0553.

For the sequence GCCCUUUUCCUUAAUUUAUTT against Neurl1a, the z-score is inactive: 0.669.

For the sequence GGUGGUGCUUUACGUCAAATT against Bzw2, the z-score was inactive: -0.268.

As to GGAACCUACCUCACCUUUGTT against Fscn3, the z-score was inactive: -0.749.

Turning to GGCUUUUAAGUUCUUCCAGTT against Ptbp3, the z-score was active: 2.44.

As to GGAAUCUCAAGAGCUACAGTT against Ccl7, the z-score is inactive: -0.52.

Take GGAAAUAAACACUAUGCAUTT against Zfp33b: the z-score is inactive: -1.16.

Take CGAUCUCCCAGGCAAUAACTT against Llcfc1: the z-score is inactive: -0.882.

On to GGGUUCGAGAAAAAAUUGATT against Ubxn1, for which the z-score is inactive: 0.383.

As for GGAGCCAAAUAUUAGCGCGTT against Mgp, the z-score is inactive: -0.0563.

Take GGAUGAGGAGGAAAAGCUGTT against Nop2: the z-score is inactive: -1.86.

As for GGGCUGGCAGAAUAGCAUCTT against Foxl2, the z-score is inactive: 0.592.

In the case of GGUGCUGGACAAAUUGAGATT against Cgas, the z-score is inactive: -0.189.

For the sequence CCUGGCCAUGUCGAAAGAUTT against Pla2g6, the z-score was inactive: 0.716.

As for GGACAUGGAGAUUAGAGUCTT against Tcl1b4, the z-score was inactive: -0.479.

Turning to GGUCUAUCUACGCUGUGUUTT against Cd36, the z-score was inactive: -1.28.

For GUUCUUCUCAUCUUCCGCUTT against Olfr1506, the z-score is inactive: 0.535.

GCUUGUCUAGAAACACCAUTT against Lrfn3: the z-score is inactive: -0.189.

Take GGACUCCCUUCUAGGUGAATT against Mcm7: the z-score is inactive: 1.12.

Turning to GGGAUGAUUUUGAGAUUUUTT against Dmpk, the z-score is active: 2.74.

For GGUUCUCAGAGCUUGUAGATT against Sned1, the z-score was inactive: -0.442.

Consider GGAACAGCAUGCUUACAUUTT against Ugt1a6b, for which the z-score is inactive: 1.25.

Consider GGAUAGGAUUCGAUGUCGUTT against Ntpcr, for which the z-score was inactive: -1.36.

On to CCUCGAAAAUUUGAUACCGTT against Alkbh8, for which the z-score was inactive: 1.81.

Consider GGAGGAGGAAGAAAUACCGTT against Gspt1, for which the z-score was inactive: -0.852.

For GGAUAACCUUGAAUUUCUGTT against Il5, the z-score was inactive: 0.62.

Take GGAAGUUUGUUCAUCCCACTT against Reep1: the z-score was inactive: -0.893.

“CCCACCUUCCAAAAGGAUCTT against 5031434C07Rik”: the z-score is inactive: -0.882.

On to GGAAGAAGCCACCAUGUACTT against Pbx4, for which the z-score is inactive: -1.75.

Consider GCAAGCUAAAGGUACAGAATT against Ncoa6, for which the z-score was inactive: -0.84.

Regarding GCUAAUCGGUAUUGAUGAUTT against Dab2, the z-score was inactive: -0.816.

As to CCACCUGUACACCUAGACUTT against Pex12, the z-score was inactive: -1.67.

In the case of GGUGAAGAUUGACAAGAAATT against Spout1, the z-score is inactive: 0.254.

GGUGAUAAAGCUAUGUAUUTT against Ccn2: the z-score is inactive: 0.147.

For GCACAUGGGAGACUAUGAATT against Necab2, the z-score is inactive: -1.14.

For the sequence AAGCCCAUAUACUGAAGGUTT against Klk1b22, the z-score was inactive: -0.725.

On to CGGUCAUUUGAAGUAGGAATT against Pwwp3a, for which the z-score was inactive: 0.76.

Take GCAUGGACAAAUGUCCCUGTT against Lce1f: the z-score was inactive: -0.24.

For GGUCAUGGGACAGCAAAUGTT against Tmco6, the z-score was inactive: -1.67.

Consider GGCCAAAGUACUUUGUUCCTT against Pdpr, for which the z-score was active: 3.63.

For the origin of these results see PubChem BioAssay AID1508600 (Functional Genomics Laboratory (NCATS/FGL), 2020).
